Assay results from US20170355765A1 (published 2017).
No constants are given. Whether binding was seen depends on the method and setting. Some results given as binding are weak or reduced against the parent protein; the word gives no strength.

Sequences of proteins named here, by UniProt entry; tags and fusion partners are left off. Residues count along the entry.
UniProt Q9CZ52, residues 31-319: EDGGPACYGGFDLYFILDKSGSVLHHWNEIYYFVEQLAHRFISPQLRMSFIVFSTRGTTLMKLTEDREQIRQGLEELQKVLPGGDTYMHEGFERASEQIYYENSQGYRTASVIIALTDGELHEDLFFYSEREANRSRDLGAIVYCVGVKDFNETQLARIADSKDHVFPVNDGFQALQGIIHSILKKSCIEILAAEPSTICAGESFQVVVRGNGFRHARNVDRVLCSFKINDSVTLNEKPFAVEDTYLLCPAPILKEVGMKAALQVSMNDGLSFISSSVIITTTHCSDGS

Target: mouse TEM8 (mouse) (UniProt Q9CZ52)
Experiment: screening assays, IgG1 format

B1: m863 antibody in human IgG1 format (antibody, V domains shown)
VH: EVQLVETGAEVKKPGASVKVSCKASGYTFTGYYMHWVRQAPGQGLEWMGWINPTSGSTNYAQKFQGRVTMTRDTSISTAYMELSGLRSDDTAVYYCVRDPGSPKWLAFDPWGQGTLVTVSS
VL: DIQLTQSPSSLSASVGDRVTITCRASRAISRYLNWYQQKPGKAPKLLIYAASSLQSGVSSRFSGSGSGTEFTLTISSLQPEDFATYFCQQTYSPPITFGQGTRLEIKR
binding: binds
